# Some of the results follow.
# Test system: T1, CTL2-GFP (C. trachomatis L2/434/Bu, GFP-expressing)
# T1 construct: L2/434/Bu, GFP-expressing
# Set-up: species or system HeLa; Intracellular C. trachomatis growth in HeLa cells, bulk GFP fluorescence relative to DMSO
# Conditions: bulk GFP, single well; 28.5 h, 10 µM; inhibitor
row,SMILES,% of control remaining
1,CN1C(=O)c2ccccc2C(=O)[C@@]2(C)CN(C3CCCC3)C[C@@H]12 [CBK283476],135.735%
2,O=C(O)c1ccc(N2CCCCS2(=O)=O)cc1Cl [CBK287142],136.536%
3,Cc1ccc(-c2nn(CCC#N)cc2C(=O)N2CCCCC2)cc1 [CBK306119],115.035%
4,CC(=O)Oc1cc(C)cc(C#N)c1 [CBK038296],116.921%
5,O=C(O)c1cccc2c1Sc1ccccc1O2 [CBK017129],122.902%
6,Cc1ccc(C(=O)NC(=S)Nc2ccc(-c3ccc(CO)o3)cc2)cc1[N+](=O)[O-] [CBK269127],92.8723%
7,S=c1nc(-c2ccccc2)n2cc(Br)ccc2n1 [CBK026696],122.502%
8,COC(=O)c1c(NC(=O)C2C3C=CC(C3)C2C(=O)O)sc2c1CCCCC2 (centres unmarked) [CBK262653],100%
9,CSCc1nc(CS(=O)(=O)Cc2cccc(C(F)(F)F)c2)no1 [CBK023617],152.116%
10,Cc1cccc(CN2CCN(c3ccccc3C(O)c3nccn3C)CC2)c1 (centres unmarked) [CBK286441],137.529%
11,COc1ccccc1Cc1cccc(C2CCN(C(=O)Cc3ccccc3)CC2)n1 [CBK286240],125.063%
12,Cc1nn(CCC(=O)NCc2ccco2)c(C)c1Cl [CBK269961],131.615%
13,O=c1[nH]c(-c2ccccc2)nc2c1CN(Cc1ccc(F)cc1)CC2 [CBK282329],118.111%
14,Cc1noc(C)c1CNS(=O)(=O)N1CCOC(c2ccccc2)C1 (centres unmarked) [CBK305306],107.676%
15,Cc1ccc(-n2c(C)c([N+](=O)[O-])c3ccc(O)cc32)cc1 [CBK094246],119.826%
16,Clc1ccc(Cn2ncc3c(NCc4cccnc4)ncnc32)cc1 [CBK300478],94.0279%
17,Cc1cccc(C(C)C)c1NC(=O)C1Cc2ccccc2CN1S(=O)(=O)c1ccc(F)cc1 (centres unmarked) [CBK267992],101.369%
18,CCN1CCN(S(=O)(=O)c2ccccc2F)CC1 [CBK100558],87.8346%
19,O=C(CSCc1ccc(C(=O)O)cc1)Nc1ccc2ccccc2c1 [CBK299833],132.866%
20,CC1(C)CC(=O)C2=C(C1)OC(=O)CC2c1ccc(Cl)cc1Cl (centres unmarked) [CBK007777],157.718%
21,Cc1nn(-c2ccccn2)c2c1-c1oncc1CC2 [CBK287280],170.898%
22,C=CCn1c(Cc2csc(NC(=O)c3ccc(S(C)(=O)=O)cc3)n2)n[nH]c1=S [CBK295340],151.985%
23,Cc1ccc(NS(=O)(=O)c2ccc(OC(F)(F)F)cc2)nc1 [CBK043577],105.491%
24,O=c1c(N2CCC(Sc3ccccc3)CC2)nccn1Cc1ccc(OC(F)(F)F)cc1 [CBK155257],93.8876%
25,CN(C)C1CCN(C(=O)c2ccc(-c3cnc(OCC4CCN(C(=O)OC(C)(C)C)CC4)nc3)cc2)C1 (centres unmarked) [CBK169767],129.99%

row,SMILES,% of control remaining
1,CC(C)(C)Oc1nc(=O)[nH]c(=O)[nH]1 [CBK007194],110.097%
2,CN(C)CCn1nc(-c2cccc(-n3cccc3)c2)oc1=O [CBK284002],112.623%
3,COc1cc(/C=N\NC(=O)CSc2nc3ccccc3o2)ccc1O [CBK263630],132.333%
4,Cc1nn(CC(=O)N2CCN(Cc3ccccn3)CC2)c(C)c1Cl [CBK305978],90.262%
5,Cc1c(C(=O)N2CCC[C@H]2[C@H](O)c2nccs2)oc2ccccc12 [CBK284281],68.9465%
6,CCN(CCO)c1ccc(Nc2cc(-c3cc(C(F)(F)F)cc(C(F)(F)F)c3)ncn2)cc1 [CBK090994],173.706%
7,CCCc1nn(CC(=O)N(C)C)c(=O)c2cc3ccsc3n12 [CBK284193],83.0975%
8,O=C(O)c1cccc(-n2ncc(-c3ccccc3C(F)(F)F)n2)c1 [CBK112721],87.5212%
9,CC1CCc2c(sc(NC(=O)c3ccccc3)c2CN2CCCC2)C1 (centres unmarked) [CBK265908],157.679%
10,CCOC(=O)c1cccc(-n2cc(-c3ccc(Br)cc3F)nn2)c1 [CBK113153],105.188%
11,Oc1cc(C(F)(F)F)nc(NCc2cccc3ccccc23)n1 [CBK003716],76.5662%
12,CCOC(=O)CN1CCN(S(=O)(=O)c2ccc(F)c(Cl)c2)CC1 [CBK043782],127.804%
13,CS(=O)(=O)N(CC(=O)Nc1ccccc1-c1ccccc1)c1ccc(F)c(Cl)c1 [CBK268539],89.1961%
14,COc1ccc(C(C)C)cc1-c1cncc(Nc2ccc(Cl)cc2)n1 [CBK065285],118.727%
15,Cc1cc(NC(=O)CSc2nc(-c3ccc(F)cc3)cc(C(F)(F)F)n2)n(-c2ccccc2)n1 [CBK266248],193.668%
16,CC1CCN(Cc2ccc(-c3nnn(CC(=O)NCc4ccc(S(N)(=O)=O)cc4)n3)cc2)CC1 [CBK144141C],99.7265%
17,O=C(N[C@H]1CO[C@H]2[C@@H]1OC[C@@H]2Nc1nccc(-c2cccc(F)c2)n1)C1CC1 [CBK289535],96.5656%
18,Cc1cccc(C(=O)Nc2c(C(=O)Nc3ccc(Br)cc3)cnn2-c2ccccc2)c1 [CBK264839],78.8669%
19,Cc1nonc1/N=N/N(CC(=O)N1CCOCC1)c1nonc1C [CBK262399],116.213%
20,O=C(CSc1nncc(=O)[nH]1)NCc1ccccc1 [CBK270246],139.951%
21,CCOC(=O)N(C)c1c(CC)nc2c(OCC(=O)C(C)(C)C)cccn12 [CBK147382],107.415%
22,COCc1nc2ccccc2n1CC(=O)N1CCC(c2ccccc2)C1 (centres unmarked) [CBK282211],120.916%
23,S=C(Nc1ccccc1)N1CCCCC1CN1CCCCC1 (centres unmarked) [CBK006196],82.0382%
24,O=C(NCCN1CCOCC1)NCC12CC3CC(C1)CC(c1ccccc1)(C3)C2 [CBK268388],116.662%
25,Cn1nc(C2CCN(C(=O)CCc3ccccc3)CC2)c2cccnc21 [CBK285050],113.614%

# Quoted from above (two entries):
row,SMILES,% of control remaining
18,Cc1cccc(C(=O)Nc2c(C(=O)Nc3ccc(Br)cc3)cnn2-c2ccccc2)c1 [CBK264839],78.8669%
19,Cc1nonc1/N=N/N(CC(=O)N1CCOCC1)c1nonc1C [CBK262399],116.213%
